Data on one compound can be found in paper PMC11052316, “New Transferrin Receptor-Targeted Peptide–Doxorubicin Conjugates: Synthesis and In Vitro Antitumor Activity” (Molecules, 2024).

One test deals with HepG2 cells. The test can be described thus: In vitro cytotoxicity, CCK-8 assay. To be noted: HepG2, 48 h, CCK-8, mean ± SD (n = 3). The class given is cell-based, human. The protocol: (§1) Human HepG2 hepatocellular carcinoma cells and human U87 glioblastoma cells were purchased from Procell Life Science & Technology Co., Ltd. (Wuhan, China), human A549 lung carcinoma cells were obtained from the School of Basic Medical Sciences, Chengde Medical University, human LO2 normal hepatic cells were purchased from Jennio Biotech Co., Ltd. (Guangzhou, China). The cells were cultured in DMEM (HepG2), MEM containing 1% non-essential amino acids (U87), and RPMI-1640 (A549 and LO2), supplemented with 10% fetal bovine serum (FBS) and 1% penicillin/streptomycin at 37 °C in a humidified atmosphere with 5% CO2.
(§2) A549, HepG2, U87, and LO2 cells were each seeded in 96-well cell culture plates at a density of 6 × 10^3 cells per well and incubated at 37 °C for 24 h. Then, cells were treated with serial concentrations of free DOX or the peptide–DOX conjugates for 48 h. After incubation, CCK-8 (10 μL) was added to each well and incubated for an additional 2 h. The absorbance of each well was measured at 450 nm with a reference wavelength of 630 nm by using a Multiskan GO microplate reader (Thermo Fisher Scientific, Waltham, MA, USA). Data for each cell line treated with free DOX or PDCs were obtained from three independent experiments.
On the technique in general: Formazan colour is commonly taken as a measure of viable cells.

In a further test the test system is A549 cells. The test can be described thus: In vitro cytotoxicity, CCK-8 assay. The class given is cell-based, human. Particulars: A549, 48 h, CCK-8, mean ± SD (n = 3). The protocol: as §1, §2

In the case of `COc1cccc2c1C(=O)c1c(O)c3c(c(O)c1C2=O)C[C@@](O)(C(=O)CO)C[C@@H]3O[C@H]1C[C@H](N)[C@H](O)[C@H](C)O1` [DOX, Doxorubicin], the values for the half-maximal inhibitory concentration (IC50) in the test on HepG2 cells and with A549 cells were 1580 ± 190 nM and 3550 ± 210 nM, respectively.

Usually IC50 stands for the point on the concentration scale where inhibition reaches its midpoint.
